Results taken from patent US20260265800A1, “NEW FUCOSYLTRANSFERASES FOR IN VIVO SYNTHESIS OF LNFP-III” (DSM IP Assets B.V., priority 2022, published 2026).
Some entries share one result that the patent states for a list of compounds.

B1: Camp1: α-1,3-fucosyltransferase from Campylobacter sp., GenBank MBP3676691.1, SEQ ID NO: 1 (protein, listed as Campylobacter sp.)
chain: MRKDLVIIRVDGGIASQIAFVALGLEFESRGYKVKYDLSWFDEFGNGFYNEQNGYDRSYNITFDIPKAFPDIKCEIASRDEIEIYRKKYFVDNEEVIELKPPLYVGGYLGRHFDFKYRDFFAKHFNPKEIQESDSECKILLDNILSNHSCGVHIRMGDLSKEHVVYGKPLSVEYFLKNIQLVLQIEPKSKFYFFSDDLEWVKKKVIPSLHSIEYEICNVNSVEKGYLDLYLLSRCKIIIASQGSMGKYAKMLALDSKTLLITPNKNAPMENMMMVNWADSYESFEEKQIQKPLSWRNKIRLKIYKKLRNKLLQKGIL
B2: Hpull1: α-1,3-fucosyltransferase from Helicobacter pullorum, GenBank WP_065831246.1, SEQ ID NO: 3 (protein, listed as Helicobacter pullorum)
chain: MRKDLVIIRVDGGIASQISFVALGLEFESRGYKVKYDLSWFDEFGNGICNEQNGYDRSYNIVFDIPKAFPDIKCEIASRDEIEIYRKKYFVDNEEVIELKPPLYVGGYLGRHFNFKYRDFFAKHFNPKEIQESDSECKILLDNILSNHSCGVHIRRGDLSKEHVVYGKPLSVEYFLKNIQLVLQIEPKSKFYFFGDDLEWVKKKVIPSLNSIEYEICNVNSVEKGYLDLYLLSRCKIIIASQGSMGKFAKMLASDTETLLIAPNKNAPMENMIMVNWVDSYESSGEKQIQKPLSWRNKIRLKIYKKFRNKLLQKGIL
B3: Hacin2: α-1,3-fucosyltransferase from Helicobacter acinonychis, GenBank WP_104687422.1, SEQ ID NO: 5 (protein, listed as Helicobacter acinonychis)
chain: MFQPLLDAYTDSAYSDASDHKPPLNIAIANGWGGTKGFEASVLYFILSWRYKIALHENPNKPADLVFSNPLGQARKILSYQNTKRVFYTGENEVPNFNLFDYAIGFDGLDFKERYLRMPLYYASLHDKAQSVNDTTAPYTLKSDSLYALKKPAHCFKEDHPKLCSVVKGESDPFKRGFASFVAGNANAPMRNAFCEALNSVEPVTGGGAVKNTLGYNVTNKSEFLSQYKFNLCFENAQGYGYVTEKIIDAYFSHTIPIYWGSPSVAQDFNPKSFVNVHDFKDFDGAIDYIRYLHTHENAYLDMLYENPLNVIDGKACFYQDLSFKKILDFFKTILENDTIYHNNPFVFDRDLHEPLVSIDNLRADLLLLKDNYDGLKTDYDGLKTDYDGLKTDYDGLKTDYDGLKTDYDGLKTDYDGLKTDYDHLFKSALPLLELSQTTSFKIYHKIYQKTLPLLRMARKLVKK

Test system: LNnT
Assay: Deep well assay: HMO profile of LNnT-producing strains expressing α-1,3-fucosyltransferases (HPLC)
Type: cell-based, Escherichia coli
Settings: lactose as substrate, FT copy nr as in table 7 (enzyme names in text: single copy)
Method: Deep Well Assays in the current examples were performed as originally described to Lv et al (Bioprocess Biosyst Eng 20 (2016) 39:1737-1747) and optimized for the purposes of the current invention. More specifically, the strains disclosed in the present example were screened in 96 deep well plates using a 4-day protocol. During the first 24 hours, precultures were grown to high densities (OD600 up to 5) and subsequently transferred to a medium that allowed induction of gene expression and product formation.
More specifically, during day 1, fresh precultures were prepared using a basal minimal medium (BMM) (pH 7.0) supplemented with magnesium sulphate (0.12 g/L), thiamine (0.004 g/L) and glucose (5.5 g/L). Basal Minimal medium had the following composition: NaOH (1 g/L), KOH (2.5 g/L), KHzPO4 (7 g/L), NH&HzPO4 (7 g/L), Citric acid (0.5 g/l), trace mineral solution (5 mL/L). The trace mineral stock solution contained; ZnSO~*7H~O 0.82 g/L, Citric acid 20 g/L, Mn$04*H&O 0.98 g/L, FeSO4*7H&O 3.925 g/L, CuSO4*5H~O 0.2 g/L. The pH of the Basal Minimal Medium was adjusted to 7.0 with 5 N NaOH and autoclaved. The precultures were incubated for 24 hours at 34° C. and 1000 rpm shaking and then further transferred to 0.75 ml of a new BMM (pH 7,5) to start the main culture. The new BMM was supplemented with magnesium sulphate (0.12 g/L), thiamine (0.02 g/L), a bolus of glucose solution (0.1-0.15 g/L) and a bolus of lactose solution (5-20 g/L) Moreover, a 20% stock solution of sucrose (40-45 g/L) or maltodextrin (19-20 g/L) was provided as carbon source, accompanied by the addition of a specific hydrolytic enzyme, sucrose hydrolase or glycoamylase, respectively, so that glucose was released at a rate suitable for carbon-limited growth and similar to that of a typical fed-batch fermentation process. […] For the analysis of total broth, the 96 well plates were boiled at 100° C., subsequently centrifuged, and finally the supernatants were analysed by HPLC. […]
The molar content of individual HMOs produced by the strains was measured by HPLC. […]

Molecule	LNFP-III, % of total HMO molar (mM) content produced by each strain
B1	above 30%
B2	above 30%
B3	above 30%
